Tests used:
[1] = tested on: Staphylococcus aureus biofilm; experiment: Staphylococcus test plate, biofilm forms (Example 9); format: cell-based; details: breakpoint concentrations; number in the label is the concentration tested
[2] = tested on: Staphylococcus aureus (Staph) biofilm; experiment: MBEC assay, Staph biofilms (Example 5); format: cell-based; details: number of resistant isolates; 12 isolates from device associated infections; exposed 24 hours

## CCC[C@@H]1C[C@@H](C(=O)N[C@@H]([C@H]2O[C@H](SC)[C@H](O)[C@@H](O)[C@H]2O)[C@H](C)Cl)N(C)C1 [CLIN, clindamycin]
[1]
  Number of Staphylococcus aureus isolates resistant to individual antibiotics and antibiotic combinations, Biofilm: 12
[2]
  Staph resistance to individual antibiotics and antibiotic combinations, Biofilm: 12

From US20080318268A1, “Devices and Methods for the Selection of Agents with Efficacy Against Biofilm” (priority 2005, published 2008)
